pIC50: −log10 of the molar value. The structures given here were assigned with low confidence; some may be wrong.
Molecular target: recombinant human KHK-C (Homo sapiens, UniProt P50053)
Experiment: Human KHK-C inhibition assay (Assay A, ADP-GLO Kinase Assay)
Conditions: read-out: KHK inhibition assay (Assay A) IC50; His-tagged human KHK-C (1 µg/ml), 400 µM D-fructose, 200 µM ATP, 60 min at room temperature

Sequences of proteins named here, by UniProt entry; tags and fusion partners are left off.
UniProt P50053, whole entry: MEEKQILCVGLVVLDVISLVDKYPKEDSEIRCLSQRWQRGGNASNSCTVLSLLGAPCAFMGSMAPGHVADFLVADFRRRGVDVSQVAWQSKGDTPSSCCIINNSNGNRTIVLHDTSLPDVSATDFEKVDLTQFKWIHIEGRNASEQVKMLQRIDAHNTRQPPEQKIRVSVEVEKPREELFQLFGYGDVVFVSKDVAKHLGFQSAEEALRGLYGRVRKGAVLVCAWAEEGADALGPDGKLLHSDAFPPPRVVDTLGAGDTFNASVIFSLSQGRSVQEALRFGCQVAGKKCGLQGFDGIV

| Structure (SMILES) | pIC50 |
| --- | --- |
| CN[C@@H]1CCN(c2cc(C(F)F)c(C#N)c(Nc3cc(OC(C)C(=O)O)ccc3SC)n2)C1 (stereo partly shown) | 8.55 |
| CSc1ccc(Cl)cc1Nc1nc(N2CCNCC2)cc(C)c1C#N | 7.67 |
| CSc1ccc(CC(=O)O)cc1Nc1nc(N2CC[C@@H](N)C2)cc(C(F)(F)F)c1C#N | 8.21 |
| CSc1ccc(Cl)cc1Nc1nc(N2CCNC(=O)C2)cc(C(F)(F)F)c1C#N | 7.14 |
| N#Cc1c(C(F)F)cc(N2CC[C@@H](N)C2)nc1Nc1ccccc1C1CC1 | 8.43 |
| CSc1ccc(OC(C)C(=O)O)cc1Nc1nc(N2CC[C@H](N(C)C)C2)cc(C(F)F)c1C#N (stereo partly shown) | 8.03 |
| CN[C@@H]1CCN(c2cc(C(F)F)c(C#N)c(Nc3cc(CCC(=O)O)ccc3SC)n2)C1 | 8.33 |
| COP(=O)(O)Cc1ccc(SC)c(Nc2nc(N3CC[C@H](N(C)C)C3)cc(C(F)(F)F)c2C#N)c1 | 7.77 |
| CSc1ccc(OC(C)C(=O)O)cc1Nc1nc(N2CC[C@@H](N)C2)cc(C(F)F)c1C#N (stereo partly shown) | 8.39 |
| CSc1ccc(CC(=O)O)cc1Nc1nc(N2CC[C@H](N(C)C)C2)cc(C(F)(F)F)c1C#N | 8.10 |

Next, values leading:

| pIC50 | Structure (SMILES) |
| --- | --- |
| 8.13 | CS(=O)(=O)c1ccc(Cl)cc1Nc1nc(N2C[C@H]3CNC[C@H]3C2)cc(C(F)(F)F)c1C#N |
| 7.97 | N#Cc1c(C(F)(F)F)cc(N2CCNCC2)nc1Nc1ccccc1SC(F)F |
| 8.19 | CS(=O)(=O)c1ccccc1Nc1nc(N2C[C@H]3CNC[C@H]3C2)cc(C(F)(F)F)c1C#N |
| 7.04 | CS(=O)(=O)c1ccccc1Nc1nc(N2CCNCC2)cc(C(F)(F)F)c1C#N |
| 6.75 | CCc1ccccc1Nc1nc(N2CCNCC2)cc(C(F)(F)F)c1C#N |

Molecular target: fructose-1-phosphate generation in HepG2 cells (Homo sapiens, UniProt P50053)
Experiment: Inhibition of fructose-1-phosphate generation in HepG2 cells (Assay B, RapidFire-MS/MS)
Conditions: read-out: HepG2 assay (Assay B) IC50, 30 min with test compound, then 15 mM D-fructose for further 60 min, 37°C

| pIC50 | Structure (SMILES) |
| --- | --- |
| 6.71 | CS(=O)(=O)c1ccccc1Nc1nc(N2C[C@H]3CNC[C@H]3C2)cc(C(F)(F)F)c1C#N |

Source: patent EP4630114B1, “NEW CYANOPYRIDINE KHK INHIBITOR COMPOUNDS” (dated 2026)
